The values below come from publication PMC3415457, “Cohesin Rings Devoid of Scc3 and Pds5 Maintain Their Stable Association with the DNA” (PLoS Genetics, 2012).

These are yes or no findings as the source states them, for the method shown. Some results given as binding are weak or reduced against the parent protein; the word gives no strength. Tags and fused reporters may be left off the sequences shown.

For assay [1], the target named is T1, GST fused to the N-terminal region (aa 1–168) of Scc1 (S. cerevisiae (budding yeast)) (UniProt Q12158).
T1 sequence: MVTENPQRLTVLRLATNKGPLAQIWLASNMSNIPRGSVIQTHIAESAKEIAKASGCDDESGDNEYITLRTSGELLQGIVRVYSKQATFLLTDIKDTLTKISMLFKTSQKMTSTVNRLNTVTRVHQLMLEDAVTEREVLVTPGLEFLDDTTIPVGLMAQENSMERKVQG
The experiment in a line: pull-down; GST fusions of Scc1 regions on glutathione-agarose beads; His6-tagged Wpl1, Scc3 and Pds5 mixed together and pre-incubated 30 min at 4°C, then with beads 2 h at 4°C; 20 mM HEPES pH 7.5, 100 mM NaCl, 5% glycerol, 5 mM 2-mercaptoethanol; washes with 0.5% NP-40; Western blot with Penta-His antibody; both purified.

Assay [2] has as its target T2, Pds5, recombinant, His6-tagged (S. cerevisiae (budding yeast)) (UniProt Q04264).
T2 sequence: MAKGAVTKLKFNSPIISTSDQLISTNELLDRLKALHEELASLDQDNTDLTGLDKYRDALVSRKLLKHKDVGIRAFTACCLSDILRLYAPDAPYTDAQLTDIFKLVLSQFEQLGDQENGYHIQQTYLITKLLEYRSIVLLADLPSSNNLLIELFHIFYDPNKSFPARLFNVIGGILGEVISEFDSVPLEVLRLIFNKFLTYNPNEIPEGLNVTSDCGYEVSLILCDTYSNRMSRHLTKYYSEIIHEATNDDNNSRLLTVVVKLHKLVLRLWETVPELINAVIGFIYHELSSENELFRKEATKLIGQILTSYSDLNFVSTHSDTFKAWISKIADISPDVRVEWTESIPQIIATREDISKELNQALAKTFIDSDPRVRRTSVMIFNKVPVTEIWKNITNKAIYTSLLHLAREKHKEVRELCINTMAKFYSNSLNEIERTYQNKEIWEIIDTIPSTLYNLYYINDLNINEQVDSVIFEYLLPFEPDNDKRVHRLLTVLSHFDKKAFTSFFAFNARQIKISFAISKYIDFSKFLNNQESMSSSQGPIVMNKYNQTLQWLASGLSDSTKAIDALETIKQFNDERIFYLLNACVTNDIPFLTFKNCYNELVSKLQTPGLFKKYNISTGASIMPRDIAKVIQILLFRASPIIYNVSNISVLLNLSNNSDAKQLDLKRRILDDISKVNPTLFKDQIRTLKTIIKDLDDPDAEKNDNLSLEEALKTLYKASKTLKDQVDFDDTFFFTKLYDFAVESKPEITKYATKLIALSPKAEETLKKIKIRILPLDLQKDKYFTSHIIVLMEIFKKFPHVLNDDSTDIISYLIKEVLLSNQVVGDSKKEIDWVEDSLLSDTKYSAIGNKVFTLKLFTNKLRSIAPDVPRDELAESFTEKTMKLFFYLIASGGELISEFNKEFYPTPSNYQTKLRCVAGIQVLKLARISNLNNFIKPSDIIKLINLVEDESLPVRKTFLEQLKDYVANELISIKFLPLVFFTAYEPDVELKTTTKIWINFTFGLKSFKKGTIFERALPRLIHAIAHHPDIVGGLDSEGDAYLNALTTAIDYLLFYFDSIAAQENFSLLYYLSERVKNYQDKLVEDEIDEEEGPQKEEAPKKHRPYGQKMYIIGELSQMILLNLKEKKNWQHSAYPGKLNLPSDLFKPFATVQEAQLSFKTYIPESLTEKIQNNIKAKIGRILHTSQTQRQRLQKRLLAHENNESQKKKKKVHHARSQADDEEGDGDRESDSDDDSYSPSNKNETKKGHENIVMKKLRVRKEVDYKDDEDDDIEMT
Nature of the assay: co-sedimentation; 10–30% glycerol gradient; 10 mM HEPES-KOH pH 7.5, 75 mM NaCl, 0.25 mM EDTA; proteins mixed and preincubated 1 h at 4°C; 38000 rpm, 38 h, 4°C, SW40 Ti; fractions on Coomassie-stained SDS-PAGE; both purified.

Assay [3] has as its target T3, Scc3, recombinant, His6-tagged (S. cerevisiae (budding yeast)) (UniProt P40541).
T3 sequence: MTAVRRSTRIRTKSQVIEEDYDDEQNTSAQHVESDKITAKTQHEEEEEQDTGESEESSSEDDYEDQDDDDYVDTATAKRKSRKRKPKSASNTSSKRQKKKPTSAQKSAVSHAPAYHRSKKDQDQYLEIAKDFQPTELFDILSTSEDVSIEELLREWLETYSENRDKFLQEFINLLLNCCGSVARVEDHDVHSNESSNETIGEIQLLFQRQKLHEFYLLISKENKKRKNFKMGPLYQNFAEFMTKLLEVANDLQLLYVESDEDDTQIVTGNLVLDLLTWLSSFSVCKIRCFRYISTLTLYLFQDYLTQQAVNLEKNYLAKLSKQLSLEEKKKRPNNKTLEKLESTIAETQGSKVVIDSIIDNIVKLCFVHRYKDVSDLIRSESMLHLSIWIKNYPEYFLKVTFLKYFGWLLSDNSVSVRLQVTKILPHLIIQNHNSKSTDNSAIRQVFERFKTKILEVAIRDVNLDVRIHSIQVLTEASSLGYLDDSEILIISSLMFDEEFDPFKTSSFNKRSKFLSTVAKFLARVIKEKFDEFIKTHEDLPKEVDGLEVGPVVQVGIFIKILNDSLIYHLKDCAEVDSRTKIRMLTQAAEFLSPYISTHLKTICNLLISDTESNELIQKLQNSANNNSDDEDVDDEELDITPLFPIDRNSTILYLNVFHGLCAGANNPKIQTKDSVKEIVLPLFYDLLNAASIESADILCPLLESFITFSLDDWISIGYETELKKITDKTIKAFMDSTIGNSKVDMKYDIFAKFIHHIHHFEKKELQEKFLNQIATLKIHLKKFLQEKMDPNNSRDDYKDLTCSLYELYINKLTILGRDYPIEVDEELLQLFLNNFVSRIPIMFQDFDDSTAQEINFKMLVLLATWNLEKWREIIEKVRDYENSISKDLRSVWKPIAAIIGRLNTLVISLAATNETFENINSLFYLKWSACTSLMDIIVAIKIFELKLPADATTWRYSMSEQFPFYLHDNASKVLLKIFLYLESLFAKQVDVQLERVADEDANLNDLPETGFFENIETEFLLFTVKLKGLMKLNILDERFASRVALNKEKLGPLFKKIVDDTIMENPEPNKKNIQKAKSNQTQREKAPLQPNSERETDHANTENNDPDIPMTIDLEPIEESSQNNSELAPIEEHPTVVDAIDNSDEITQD
The description is as above.

B1: Scc3, recombinant, His6-tagged (protein, UniProt P40541 1-1150)
chain: MTAVRRSTRIRTKSQVIEEDYDDEQNTSAQHVESDKITAKTQHEEEEEQDTGESEESSSEDDYEDQDDDDYVDTATAKRKSRKRKPKSASNTSSKRQKKKPTSAQKSAVSHAPAYHRSKKDQDQYLEIAKDFQPTELFDILSTSEDVSIEELLREWLETYSENRDKFLQEFINLLLNCCGSVARVEDHDVHSNESSNETIGEIQLLFQRQKLHEFYLLISKENKKRKNFKMGPLYQNFAEFMTKLLEVANDLQLLYVESDEDDTQIVTGNLVLDLLTWLSSFSVCKIRCFRYISTLTLYLFQDYLTQQAVNLEKNYLAKLSKQLSLEEKKKRPNNKTLEKLESTIAETQGSKVVIDSIIDNIVKLCFVHRYKDVSDLIRSESMLHLSIWIKNYPEYFLKVTFLKYFGWLLSDNSVSVRLQVTKILPHLIIQNHNSKSTDNSAIRQVFERFKTKILEVAIRDVNLDVRIHSIQVLTEASSLGYLDDSEILIISSLMFDEEFDPFKTSSFNKRSKFLSTVAKFLARVIKEKFDEFIKTHEDLPKEVDGLEVGPVVQVGIFIKILNDSLIYHLKDCAEVDSRTKIRMLTQAAEFLSPYISTHLKTICNLLISDTESNELIQKLQNSANNNSDDEDVDDEELDITPLFPIDRNSTILYLNVFHGLCAGANNPKIQTKDSVKEIVLPLFYDLLNAASIESADILCPLLESFITFSLDDWISIGYETELKKITDKTIKAFMDSTIGNSKVDMKYDIFAKFIHHIHHFEKKELQEKFLNQIATLKIHLKKFLQEKMDPNNSRDDYKDLTCSLYELYINKLTILGRDYPIEVDEELLQLFLNNFVSRIPIMFQDFDDSTAQEINFKMLVLLATWNLEKWREIIEKVRDYENSISKDLRSVWKPIAAIIGRLNTLVISLAATNETFENINSLFYLKWSACTSLMDIIVAIKIFELKLPADATTWRYSMSEQFPFYLHDNASKVLLKIFLYLESLFAKQVDVQLERVADEDANLNDLPETGFFENIETEFLLFTVKLKGLMKLNILDERFASRVALNKEKLGPLFKKIVDDTIMENPEPNKKNIQKAKSNQTQREKAPLQPNSERETDHANTENNDPDIPMTIDLEPIEESSQNNSELAPIEEHPTVVDAIDNSDEITQD
As for B1, the binding entry in assay [1] and in assay [2] was “binds weakly” each time.

B2: Wpl1, recombinant, His6-tagged (natural protein, S. cerevisiae (budding yeast), UniProt Q99359 1-647, looked up)
chain: MRAYGKRGPVLRTPFRSNKGLPSSSDVEFSDDDVNSVIPDVSSTISSSIADHPIEGLLDEPRKAQDSSSSFDGANEKPSSQLDSKRNDQNVKIITSSDTSMAFMKDEKLSAFNFLDGSKASKRKRRRTYQKHDANITSSIEPDVQDEDSITMHNEFESIRKIYNDINEFILKLPRADDDILNKMLENEMKMDDSIENNSIRTSKDKKYGKFRTILINKNKENEIMGEEVDQKANTLSLNNADNSNAEKEGLTSTNHYNELKNMGDTIKYQDDIEFLLSNSKSNDNTTVPINEYFKKLLNLSLMIINDEEFFQYAKRYFKKEIIKLSFAQFRSDFPELILLQGYLLHKVSESQSDFPPSFDNFSIELSKDDGKIRTKKNKHIKKLSHLNFEDFLRKTQFKTGLYYSLSLWEMHGNLSLDIIKRISILASNKDLFSRHVKTFIPLLEKLITASEFCHMYIEQPEMFDSLISNLNNQFKDMLDDDSLIKILILLTNMEVHNYTLWKEADMIFQSSMNTILESIHPLTDAKVDNILLHLGLCLNICSRENSRLKLDGKLWYDMKTIFVKMIRDGSDTENRLVQGLFYLNFSFLIKQRKENSNLDPGELNLLLVELEAFKSETSQFNEGISNKIEIALNYLKSIYTSERITI
notes: also called Rad61; His6-tagged Wpl1; source: E. coli BL21 (DE3) RIL, purified (Ni-NTA, gel filtration); not shown: His6, C-terminal, kept
As to B2, the binding result in assay [3] is on record as “binds weakly”.
